According to the supplement of paper PMC10849652:
The list shows a part of the results.

Chains of the proteins cited; added tags and fusions are not shown. Lines headed by an entry give the natural chain unless they say otherwise; changes in a name come on top.
UniProt Q5R3I4: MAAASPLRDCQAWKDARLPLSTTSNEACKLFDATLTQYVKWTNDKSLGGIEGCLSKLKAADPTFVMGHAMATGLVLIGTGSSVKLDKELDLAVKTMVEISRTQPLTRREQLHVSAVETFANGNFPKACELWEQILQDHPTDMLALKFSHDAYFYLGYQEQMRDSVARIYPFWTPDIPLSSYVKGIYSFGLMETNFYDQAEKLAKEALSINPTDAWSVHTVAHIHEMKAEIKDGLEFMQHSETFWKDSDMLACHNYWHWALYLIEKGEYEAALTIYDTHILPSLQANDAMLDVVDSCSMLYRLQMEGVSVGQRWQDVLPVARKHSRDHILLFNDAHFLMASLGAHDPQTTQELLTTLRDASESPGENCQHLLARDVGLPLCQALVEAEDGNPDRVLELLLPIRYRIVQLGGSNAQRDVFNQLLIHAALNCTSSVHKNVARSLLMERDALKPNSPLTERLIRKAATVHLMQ
UniProt Q9NY65, whole entry, looked up: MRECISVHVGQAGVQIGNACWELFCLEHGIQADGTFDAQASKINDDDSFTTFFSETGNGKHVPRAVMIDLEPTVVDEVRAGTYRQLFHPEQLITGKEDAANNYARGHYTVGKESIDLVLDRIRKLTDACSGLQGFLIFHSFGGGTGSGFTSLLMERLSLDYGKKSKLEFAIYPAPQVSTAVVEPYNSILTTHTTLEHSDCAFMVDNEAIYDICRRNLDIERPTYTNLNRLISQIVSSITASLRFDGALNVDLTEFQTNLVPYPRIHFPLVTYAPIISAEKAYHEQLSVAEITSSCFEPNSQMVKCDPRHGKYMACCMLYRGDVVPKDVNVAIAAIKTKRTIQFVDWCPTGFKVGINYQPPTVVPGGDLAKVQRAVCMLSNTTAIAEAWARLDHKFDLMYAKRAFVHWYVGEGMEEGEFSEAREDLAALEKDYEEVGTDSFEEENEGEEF
UniProt Q9P2K2: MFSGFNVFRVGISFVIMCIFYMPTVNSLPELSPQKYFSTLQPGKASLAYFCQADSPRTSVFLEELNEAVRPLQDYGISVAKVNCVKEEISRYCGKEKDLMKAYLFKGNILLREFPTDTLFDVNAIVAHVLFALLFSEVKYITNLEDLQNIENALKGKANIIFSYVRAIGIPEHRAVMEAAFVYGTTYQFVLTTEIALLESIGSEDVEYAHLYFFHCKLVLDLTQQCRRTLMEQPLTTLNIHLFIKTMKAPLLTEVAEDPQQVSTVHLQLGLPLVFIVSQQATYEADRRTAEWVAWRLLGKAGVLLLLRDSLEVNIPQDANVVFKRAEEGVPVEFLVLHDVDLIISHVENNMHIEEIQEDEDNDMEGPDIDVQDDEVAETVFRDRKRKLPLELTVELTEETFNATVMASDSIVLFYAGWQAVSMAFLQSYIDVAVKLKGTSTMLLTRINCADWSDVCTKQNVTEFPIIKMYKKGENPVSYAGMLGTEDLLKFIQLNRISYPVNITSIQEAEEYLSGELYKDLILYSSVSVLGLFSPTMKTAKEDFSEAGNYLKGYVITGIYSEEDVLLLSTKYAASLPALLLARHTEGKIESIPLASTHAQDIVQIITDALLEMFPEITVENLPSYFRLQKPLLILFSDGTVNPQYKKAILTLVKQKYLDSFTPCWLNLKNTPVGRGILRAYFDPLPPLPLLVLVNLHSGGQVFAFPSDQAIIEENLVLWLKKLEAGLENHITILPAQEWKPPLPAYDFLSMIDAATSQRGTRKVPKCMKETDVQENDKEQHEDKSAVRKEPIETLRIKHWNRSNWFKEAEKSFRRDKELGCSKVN
UniProt Q9GZZ9, whole entry, looked up: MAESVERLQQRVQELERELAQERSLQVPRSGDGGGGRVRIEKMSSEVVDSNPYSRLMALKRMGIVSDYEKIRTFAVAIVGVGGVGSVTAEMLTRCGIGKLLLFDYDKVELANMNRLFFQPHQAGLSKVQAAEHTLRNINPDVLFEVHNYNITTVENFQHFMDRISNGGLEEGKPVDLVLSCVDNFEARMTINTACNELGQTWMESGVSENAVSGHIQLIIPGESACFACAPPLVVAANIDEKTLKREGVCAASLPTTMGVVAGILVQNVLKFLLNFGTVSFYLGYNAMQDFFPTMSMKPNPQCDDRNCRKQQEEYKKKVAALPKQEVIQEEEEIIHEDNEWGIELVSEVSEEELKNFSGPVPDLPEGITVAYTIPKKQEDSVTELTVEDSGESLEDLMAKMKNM
UniProt Q14157: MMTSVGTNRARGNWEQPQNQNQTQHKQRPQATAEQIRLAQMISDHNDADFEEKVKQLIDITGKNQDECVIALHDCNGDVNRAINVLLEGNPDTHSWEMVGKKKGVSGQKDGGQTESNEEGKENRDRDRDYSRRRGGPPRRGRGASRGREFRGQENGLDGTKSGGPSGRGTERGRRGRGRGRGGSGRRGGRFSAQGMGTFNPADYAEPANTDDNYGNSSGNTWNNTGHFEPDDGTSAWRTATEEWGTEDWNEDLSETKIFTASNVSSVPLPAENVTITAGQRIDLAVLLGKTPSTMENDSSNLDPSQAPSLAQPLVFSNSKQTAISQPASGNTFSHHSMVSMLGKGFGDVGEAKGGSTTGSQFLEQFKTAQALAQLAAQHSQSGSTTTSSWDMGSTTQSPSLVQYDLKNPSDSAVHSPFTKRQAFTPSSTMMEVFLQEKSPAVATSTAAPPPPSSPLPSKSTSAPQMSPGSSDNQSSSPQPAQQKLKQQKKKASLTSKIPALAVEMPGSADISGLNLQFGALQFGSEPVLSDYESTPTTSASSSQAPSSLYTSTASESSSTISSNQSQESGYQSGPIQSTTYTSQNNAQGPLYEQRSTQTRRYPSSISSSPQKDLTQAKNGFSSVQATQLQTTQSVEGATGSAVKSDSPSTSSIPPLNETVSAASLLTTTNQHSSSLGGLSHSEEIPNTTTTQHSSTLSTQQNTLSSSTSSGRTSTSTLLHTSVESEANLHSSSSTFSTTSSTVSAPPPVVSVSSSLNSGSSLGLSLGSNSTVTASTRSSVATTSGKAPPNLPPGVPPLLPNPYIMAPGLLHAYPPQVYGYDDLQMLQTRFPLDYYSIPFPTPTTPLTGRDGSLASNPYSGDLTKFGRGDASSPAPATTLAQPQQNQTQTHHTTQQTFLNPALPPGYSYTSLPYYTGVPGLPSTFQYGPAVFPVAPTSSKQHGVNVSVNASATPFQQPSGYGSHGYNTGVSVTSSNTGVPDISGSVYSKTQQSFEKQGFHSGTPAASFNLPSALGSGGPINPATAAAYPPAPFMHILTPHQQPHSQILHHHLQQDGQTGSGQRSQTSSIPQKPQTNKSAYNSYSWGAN
UniProt Q7Z6J9: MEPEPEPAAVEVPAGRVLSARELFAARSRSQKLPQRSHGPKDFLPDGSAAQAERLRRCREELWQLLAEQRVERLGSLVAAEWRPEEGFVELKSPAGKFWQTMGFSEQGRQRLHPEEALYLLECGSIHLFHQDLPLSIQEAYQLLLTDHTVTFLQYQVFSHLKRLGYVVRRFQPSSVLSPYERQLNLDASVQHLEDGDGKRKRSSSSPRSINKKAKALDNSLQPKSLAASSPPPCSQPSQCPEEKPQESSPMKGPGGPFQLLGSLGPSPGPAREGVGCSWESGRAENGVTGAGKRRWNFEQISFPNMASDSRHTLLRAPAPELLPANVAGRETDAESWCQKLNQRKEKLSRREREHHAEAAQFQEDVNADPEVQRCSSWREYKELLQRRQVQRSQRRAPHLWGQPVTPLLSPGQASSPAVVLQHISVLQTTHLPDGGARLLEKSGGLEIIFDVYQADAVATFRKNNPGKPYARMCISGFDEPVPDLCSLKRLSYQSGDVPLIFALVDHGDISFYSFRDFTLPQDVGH
UniProt Q16222: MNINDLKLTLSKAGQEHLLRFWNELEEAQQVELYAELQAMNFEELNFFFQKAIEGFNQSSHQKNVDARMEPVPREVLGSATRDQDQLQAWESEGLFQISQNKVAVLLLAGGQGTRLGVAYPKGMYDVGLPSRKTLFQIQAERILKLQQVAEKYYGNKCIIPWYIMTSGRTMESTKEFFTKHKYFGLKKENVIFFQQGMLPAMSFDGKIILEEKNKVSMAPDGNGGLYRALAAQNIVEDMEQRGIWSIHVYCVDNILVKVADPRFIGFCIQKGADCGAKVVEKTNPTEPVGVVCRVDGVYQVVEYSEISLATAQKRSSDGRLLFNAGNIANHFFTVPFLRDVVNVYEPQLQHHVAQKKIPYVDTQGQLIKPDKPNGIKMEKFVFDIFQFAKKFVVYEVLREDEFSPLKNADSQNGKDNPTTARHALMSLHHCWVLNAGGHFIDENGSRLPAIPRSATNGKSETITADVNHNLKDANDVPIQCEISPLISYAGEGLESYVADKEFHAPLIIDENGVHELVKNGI
UniProt P63279, whole entry, looked up: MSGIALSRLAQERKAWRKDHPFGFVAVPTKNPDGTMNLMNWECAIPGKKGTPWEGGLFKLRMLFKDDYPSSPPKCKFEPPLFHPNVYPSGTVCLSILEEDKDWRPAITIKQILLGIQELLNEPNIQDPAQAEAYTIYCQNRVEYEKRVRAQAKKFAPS
UniProt Q5BVD1: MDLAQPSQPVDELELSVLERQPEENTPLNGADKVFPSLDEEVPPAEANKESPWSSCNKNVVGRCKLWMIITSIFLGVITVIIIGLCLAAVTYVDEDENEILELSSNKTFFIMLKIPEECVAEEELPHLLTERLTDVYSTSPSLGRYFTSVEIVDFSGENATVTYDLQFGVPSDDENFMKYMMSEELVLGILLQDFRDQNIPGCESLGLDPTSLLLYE
UniProt A6NHL2: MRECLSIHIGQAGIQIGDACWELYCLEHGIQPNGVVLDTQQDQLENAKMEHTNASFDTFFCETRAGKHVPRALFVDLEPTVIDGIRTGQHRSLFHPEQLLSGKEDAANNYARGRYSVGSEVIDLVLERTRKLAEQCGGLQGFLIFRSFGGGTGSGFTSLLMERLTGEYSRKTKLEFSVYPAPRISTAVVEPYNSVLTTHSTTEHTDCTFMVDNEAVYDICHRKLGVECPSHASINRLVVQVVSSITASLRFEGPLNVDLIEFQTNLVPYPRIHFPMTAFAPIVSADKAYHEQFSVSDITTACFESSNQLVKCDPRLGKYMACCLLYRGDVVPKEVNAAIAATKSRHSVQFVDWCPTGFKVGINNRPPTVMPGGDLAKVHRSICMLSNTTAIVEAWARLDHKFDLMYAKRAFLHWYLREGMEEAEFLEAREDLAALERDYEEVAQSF
UniProt Q5T6F2: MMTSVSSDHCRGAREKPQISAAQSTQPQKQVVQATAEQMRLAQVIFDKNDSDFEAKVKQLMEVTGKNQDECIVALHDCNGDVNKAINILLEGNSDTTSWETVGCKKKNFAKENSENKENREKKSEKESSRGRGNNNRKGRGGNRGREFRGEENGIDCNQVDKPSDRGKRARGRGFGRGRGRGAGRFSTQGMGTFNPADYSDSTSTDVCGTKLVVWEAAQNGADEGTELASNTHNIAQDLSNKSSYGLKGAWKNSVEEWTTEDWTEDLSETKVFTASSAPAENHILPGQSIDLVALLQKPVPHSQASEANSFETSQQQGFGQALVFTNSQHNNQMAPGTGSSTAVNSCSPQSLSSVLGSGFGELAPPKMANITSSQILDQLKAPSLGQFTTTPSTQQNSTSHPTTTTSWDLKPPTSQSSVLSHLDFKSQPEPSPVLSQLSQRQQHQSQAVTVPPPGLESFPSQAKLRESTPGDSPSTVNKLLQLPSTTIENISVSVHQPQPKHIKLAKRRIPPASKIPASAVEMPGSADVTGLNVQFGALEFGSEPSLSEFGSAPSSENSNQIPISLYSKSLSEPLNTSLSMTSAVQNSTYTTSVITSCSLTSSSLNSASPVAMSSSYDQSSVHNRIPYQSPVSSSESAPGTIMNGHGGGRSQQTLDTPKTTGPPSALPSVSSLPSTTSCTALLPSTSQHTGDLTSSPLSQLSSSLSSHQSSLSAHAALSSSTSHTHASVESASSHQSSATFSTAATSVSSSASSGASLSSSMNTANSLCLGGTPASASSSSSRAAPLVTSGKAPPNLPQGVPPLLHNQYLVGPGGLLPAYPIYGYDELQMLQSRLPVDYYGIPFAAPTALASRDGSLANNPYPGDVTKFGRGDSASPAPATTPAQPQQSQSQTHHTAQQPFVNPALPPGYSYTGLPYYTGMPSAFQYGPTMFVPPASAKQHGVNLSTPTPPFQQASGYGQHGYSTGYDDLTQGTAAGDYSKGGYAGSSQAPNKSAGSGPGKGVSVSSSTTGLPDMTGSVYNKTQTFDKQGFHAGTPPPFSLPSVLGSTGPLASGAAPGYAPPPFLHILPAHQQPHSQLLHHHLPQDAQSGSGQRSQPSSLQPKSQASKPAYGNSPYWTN
UniProt Q9NPD8: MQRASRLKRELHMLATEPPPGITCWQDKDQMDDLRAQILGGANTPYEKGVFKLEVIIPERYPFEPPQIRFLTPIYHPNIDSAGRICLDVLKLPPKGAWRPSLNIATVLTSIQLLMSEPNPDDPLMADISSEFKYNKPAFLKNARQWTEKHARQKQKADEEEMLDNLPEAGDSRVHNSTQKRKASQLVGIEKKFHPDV
UniProt P62253: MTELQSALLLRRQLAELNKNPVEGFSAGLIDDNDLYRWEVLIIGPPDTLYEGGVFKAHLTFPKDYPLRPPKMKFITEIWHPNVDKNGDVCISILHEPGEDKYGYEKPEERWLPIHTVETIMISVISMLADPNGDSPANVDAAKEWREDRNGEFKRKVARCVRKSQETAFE

Columns and labels:
Assay in all cases: log2 fold change, soluble protein after heating vs DMSO (PISA); higher = thermal stabilisation; K562 cells, 10 uM, 30 min; active = over 0.2 and 3.5 SD of the protein, either way, in both replicates (recomputed)
[1] = compound: COC1=CC=C(C=C1)CN2C=CC3=C2C=C(C=C3)C(=O)NO
How it was run: (§1)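 K562 cells at 2×10^6 cells/mL were treated with 10 μM compound for 30 min. Aliquots were heated for 3 min across 48°C-58°C, pooled, and extracted in PBS with 0.5% NP-40 at 4°C; soluble protein was the supernatant after 21,000xg for 90 min. Soluble protein was quantified by TMTpro 16plex LC-MS/MS with channel sums equalised, and reported as log2 fold change in thermal stability against DMSO controls, with values from duplicates.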

filanesib = compound: CON(C)C(=O)N1N=C(c2cc(F)ccc2F)S[C@@]1(CCCN)c1ccccc1 [filanesib]
How it was run: as §1

zotarolimus = compound: CO[C@H]1C[C@@H]2CC[C@@H](C)[C@@](O)(O2)C(=O)C(=O)N2CCCC[C@H]2C(=O)O[C@H]([C@H](C)C[C@@H]2CC[C@H](n3cnnn3)[C@H](OC)C2)CC(=O)[C@H](C)/C=C(\C)[C@@H](O)[C@@H](OC)C(=O)[C@H](C)C[C@H](C)/C=C/C=C/C=C/1C [zotarolimus]
How it was run: as §1

idasanutlin = compound: COc1cc(C(=O)O)ccc1NC(=O)[C@@H]1N[C@@H](CC(C)(C)C)[C@](C#N)(c2ccc(Cl)cc2F)[C@H]1c1cccc(Cl)c1F [idasanutlin]
How it was run: as §1

alisertib = compound: COc1cc(Nc2ncc3c(n2)-c2ccc(Cl)cc2C(c2c(F)cccc2OC)=NC3)ccc1C(=O)O [alisertib]
How it was run: as §1

[2] = compound: COc1cc2nc(-c3cc(F)ccc3O)nc(N[C@@H]3CNC[C@H]3C(C)(C)O)c2cc1OC
How it was run: as §1

gefitinib = compound: COc1cc2ncnc(Nc3ccc(F)c(Cl)c3)c2cc1OCCCN1CCOCC1 [gefitinib]
How it was run: as §1

[3] = compound: COc1cccc2cc(-c3nc([C@H]4CC[C@H](C(=O)O)CC4)n4ncnc(N)c34)[nH]c12
How it was run: as §1

lapatinib = compound: CS(=O)(=O)CCNCc1ccc(-c2ccc3ncnc(Nc4ccc(OCc5cccc(F)c5)c(Cl)c4)c3c2)o1 [lapatinib]
How it was run: as §1

pictilisib = compound: CS(=O)(=O)N1CCN(Cc2cc3nc(-c4cccc5[nH]ncc45)nc(N4CCOCC4)c3s2)CC1 [pictilisib]
How it was run: as §1

Measured: log2 fold change

UBC (UniProt P0CG48)
inactive: [1] -0.064 | filanesib 0.09 | zotarolimus 0.048 | idasanutlin 0 | alisertib -0.002 | [2] 0.06 | gefitinib 0.038 | [3] 0.018 | lapatinib -0.101 | pictilisib 0.008

TTC38 (UniProt Q5R3I4)
inactive: [1] -0.067 | filanesib -0.023 | zotarolimus 0.034 | idasanutlin -0.093 | alisertib 0.065 | [2] 0.081 | gefitinib 0.013 | [3] -0.003 | lapatinib -0.054 | pictilisib -0.041

TXNDC5 (UniProt Q8NBS9)
inactive: [1] 0.007 | filanesib -0.031 | zotarolimus 0.021 | idasanutlin 0.013 | alisertib -0.039 | [2] -0.007 | gefitinib 0.011 | [3] -0.016 | lapatinib -0.027 | pictilisib -0.038

TUBA8 (UniProt Q9NY65)
inactive: [1] -0.209 | filanesib 0.612 | zotarolimus -0.076 | idasanutlin 0.076 | alisertib -0.213 | [2] 0.019 | gefitinib -0.071 | [3] 0.008 | lapatinib 0.04 | pictilisib -0.03

TXNL1 (UniProt O43396)
inactive: [1] 0.169 | filanesib 0.075 | zotarolimus 0.047 | idasanutlin -0.003 | alisertib -0.005 | [2] 0.084 | gefitinib 0.05 | [3] -0.001 | lapatinib 0.006 | pictilisib 0.017

TXNDC16 (UniProt Q9P2K2)
inactive: [1] -0.104 | filanesib -0.029 | zotarolimus -0.015 | idasanutlin 0.018 | alisertib -0.115 | [2] 0.176 | gefitinib 0.084 | [3] -0.116 | lapatinib 0.055 | pictilisib 0.003

UBA5 (UniProt Q9GZZ9)
inactive: [1] 0.065 | filanesib -0.113 | zotarolimus -0.045 | idasanutlin -0.022 | alisertib -0.057 | [2] -0.07 | gefitinib -0.016 | [3] 0.031 | lapatinib 0.013 | pictilisib 0.056

UBE2V2 (UniProt Q15819)
inactive: [1] -0.019 | filanesib -0.05 | zotarolimus 0.009 | idasanutlin 0.006 | alisertib -0.038 | [2] 0.013 | gefitinib 0.039 | [3] 0.025 | lapatinib -0.026 | pictilisib 0.035

UBE2L3 isoform 3 (UniProt P68036)
inactive: [1] -0.037 | filanesib -0.033 | zotarolimus 0.002 | idasanutlin 0.03 | alisertib -0.065 | [2] 0.01 | gefitinib 0.004 | [3] -0.002 | lapatinib -0.036 | pictilisib 0.008

TSNAX (UniProt Q99598)
inactive: [1] 0.007 | filanesib -0.039 | zotarolimus 0.009 | idasanutlin 0.009 | alisertib -0.036 | [2] 0.01 | gefitinib -0.022 | [3] 0.043 | lapatinib 0.004 | pictilisib 0.007

UBAP2L isoform 5 (UniProt Q14157)
inactive: [1] -0.026 | filanesib -0.014 | zotarolimus -0.03 | idasanutlin -0.047 | alisertib -0.034 | [2] 0 | gefitinib -0.019 | [3] 0.012 | lapatinib 0 | pictilisib -0.015

UBE2Q1 (UniProt Q7Z7E8)
inactive: [1] -0.09 | filanesib -0.042 | zotarolimus 0.022 | idasanutlin 0.006 | alisertib -0.055 | [2] 0.012 | gefitinib -0.02 | [3] -0.044 | lapatinib 0.01 | pictilisib 0.039

TSEN54 (UniProt Q7Z6J9)
inactive: [1] 0.062 | filanesib 0.015 | zotarolimus -0.001 | idasanutlin 0.016 | alisertib -0.045 | [2] 0.034 | gefitinib -0.039 | [3] -0.022 | lapatinib 0.03 | pictilisib -0.203

UAP1 (UniProt Q16222)
inactive: [1] -0.028 | filanesib -0.088 | zotarolimus 0.038 | idasanutlin -0.056 | alisertib -0.054 | [2] 0.061 | gefitinib -0.006 | [3] 0.027 | lapatinib -0.059 | pictilisib 0.059

TTC17 (UniProt Q96AE7)
inactive: [1] -0.019 | filanesib 0.056 | zotarolimus -0.006 | idasanutlin 0.015 | alisertib -0.012 | [2] -0.111 | gefitinib -0.019 | [3] 0.06 | lapatinib 0.04 | pictilisib -0.093

TXNDC17 (UniProt Q9BRA2)
inactive: [1] 0.018 | filanesib -0.058 | zotarolimus 0.017 | idasanutlin -0.038 | alisertib -0.084 | [2] -0.036 | gefitinib -0.001 | [3] 0.014 | lapatinib -0.01 | pictilisib 0.122

UBE2I (UniProt P63279)
inactive: [1] -0.027 | filanesib -0.099 | zotarolimus 0.039 | idasanutlin -0.062 | alisertib -0.024 | [2] -0.003 | gefitinib 0 | [3] 0.023 | lapatinib -0.046 | pictilisib 0.035

UBE2O (UniProt Q9C0C9)
inactive: [1] 0.146 | filanesib -0.055 | zotarolimus 0 | idasanutlin -0.029 | alisertib -0.102 | [2] 0.061 | gefitinib 0.021 | [3] -0.008 | lapatinib -0.023 | pictilisib 0.005

TTMP isoform 3 (UniProt Q5BVD1)
inactive: [1] 0.362 | filanesib -0.272 | zotarolimus 0.107 | idasanutlin -0.166 | alisertib 0.086 | gefitinib 0.073 | [3] -0.051 | pictilisib 0.234

7 neighbouring records already listed, for reference:
TSEN54 (UniProt Q7Z6J9)
inactive: [1] 0.062 | filanesib 0.015 | zotarolimus -0.001 | idasanutlin 0.016 | alisertib -0.045 | [2] 0.034 | gefitinib -0.039 | [3] -0.022 | lapatinib 0.03 | pictilisib -0.203

UAP1 (UniProt Q16222)
inactive: [1] -0.028 | filanesib -0.088 | zotarolimus 0.038 | idasanutlin -0.056 | alisertib -0.054 | [2] 0.061 | gefitinib -0.006 | [3] 0.027 | lapatinib -0.059 | pictilisib 0.059

TTC17 (UniProt Q96AE7)
inactive: [1] -0.019 | filanesib 0.056 | zotarolimus -0.006 | idasanutlin 0.015 | alisertib -0.012 | [2] -0.111 | gefitinib -0.019 | [3] 0.06 | lapatinib 0.04 | pictilisib -0.093

TXNDC17 (UniProt Q9BRA2)
inactive: [1] 0.018 | filanesib -0.058 | zotarolimus 0.017 | idasanutlin -0.038 | alisertib -0.084 | [2] -0.036 | gefitinib -0.001 | [3] 0.014 | lapatinib -0.01 | pictilisib 0.122

UBE2I (UniProt P63279)
inactive: [1] -0.027 | filanesib -0.099 | zotarolimus 0.039 | idasanutlin -0.062 | alisertib -0.024 | [2] -0.003 | gefitinib 0 | [3] 0.023 | lapatinib -0.046 | pictilisib 0.035

UBE2O (UniProt Q9C0C9)
inactive: [1] 0.146 | filanesib -0.055 | zotarolimus 0 | idasanutlin -0.029 | alisertib -0.102 | [2] 0.061 | gefitinib 0.021 | [3] -0.008 | lapatinib -0.023 | pictilisib 0.005

TTMP isoform 3 (UniProt Q5BVD1)
inactive: [1] 0.362 | filanesib -0.272 | zotarolimus 0.107 | idasanutlin -0.166 | alisertib 0.086 | gefitinib 0.073 | [3] -0.051 | pictilisib 0.234

The list continues.

TXNIP (UniProt Q9H3M7)
inactive: [1] -0.013 | filanesib -0.148 | zotarolimus 0.172 | idasanutlin 0.035 | alisertib -0.198 | [2] -0.074 | gefitinib 0.002 | [3] -0.119 | lapatinib 0.228 | pictilisib 0.142

TSSC4 (UniProt Q9Y5U2)
inactive: [1] -0.006 | filanesib 0.162 | zotarolimus -0.002 | idasanutlin 0.066 | alisertib 0.039 | [2] 0.015 | gefitinib 0.007 | [3] 0.087 | lapatinib 0.055 | pictilisib -0.114

TUBAL3 (UniProt A6NHL2)
inactive: [1] -0.037 | filanesib -0.058 | zotarolimus -0.064 | idasanutlin -0.218 | alisertib 0.048 | [2] 0 | gefitinib -0.059 | [3] 0.015 | lapatinib 0.075 | pictilisib 0.052

UBAP2 (UniProt Q5T6F2)
inactive: [1] -0.007 | filanesib -0.027 | zotarolimus -0.043 | idasanutlin -0.003 | alisertib -0.051 | [2] 0.021 | gefitinib -0.004 | [3] 0.049 | lapatinib -0.02 | pictilisib -0.038

UBAC2 (UniProt Q8NBM4)
inactive: [1] 0.063 | filanesib -0.054 | zotarolimus 0.077 | idasanutlin -0.108 | alisertib 0.108 | [2] -0.075 | gefitinib 0.024 | [3] -0.01 | lapatinib 0.125 | pictilisib 0.004

TUSC3 isoform 2 (UniProt Q13454)
inactive: [1] -0.026 | filanesib 0.05 | zotarolimus -0.011 | idasanutlin -0.013 | alisertib -0.156 | [2] -0.003 | gefitinib -0.003 | [3] 0.108 | lapatinib 0.023 | pictilisib 0.066

UBE2M (UniProt P61081)
inactive: [1] -0.014 | filanesib -0.076 | zotarolimus 0.008 | idasanutlin -0.091 | alisertib -0.017 | [2] 0.07 | gefitinib 0.015 | [3] 0.027 | lapatinib -0.012 | pictilisib 0.095

UBE2T (UniProt Q9NPD8)
inactive: [1] -0.046 | filanesib 0.026 | zotarolimus 0.049 | idasanutlin 0.008 | alisertib -0.014 | [2] 0.131 | gefitinib 0.049 | [3] 0.023 | lapatinib -0.02 | pictilisib 0.074

TUFM (UniProt P49411)
inactive: [1] -0.036 | filanesib -0.116 | zotarolimus 0.072 | idasanutlin -0.16 | alisertib -0.008 | [2] 0.026 | gefitinib 0.022 | [3] 0.046 | lapatinib -0.022 | pictilisib 0.018

UBE2G1 (UniProt P62253)
inactive: [1] -0.014 | filanesib -0.07 | zotarolimus 0.04 | idasanutlin -0.04 | alisertib -0.004 | [2] 0.001 | gefitinib -0.026 | [3] 0.009 | lapatinib -0.069 | pictilisib 0.019
